The list does not hold the whole screen: it gathers tests that were run many times, whatever their T/C, doses with no T/C, and many T/C values between a quarter and a half above the control. Further doses and runs are listed elsewhere. T/C: endpoint of the treated group in % of that of the vehicle group. Some doses have a count of surviving animals in place of a T/C: the source holds a T/C of zero for them, seemingly a mark for toxic or unscored doses. Some doses without a T/C left all or most animals alive at the check, yet need not have been tolerated: the source hardly ever lists a survival T/C far under the control, and the zero likely stands for such cases as well. Survivors were counted at the toxicity check, usually on the fifth day, unless a day is given; later deaths do not show. Schedule codes are those of the source, read here as Q, the interval in days (D) or hours (H), X, the number of doses. Some entries hold several experiments; the results are listed from low to high. For survival time, this PubChem deposit counts one and a half times the control or more as active, and values a quarter to a half above the control carry no call in these data; other NCI protocols may use other cut-offs. Brackets with × count equal records among those shown. Some T/C values are followed by the survivors on the day toxicity was checked, most often the fifth; without a count, all were alive then.
System: BDF1 mice, B16 melanoma ip, median survival T/C
Assay: NCI In Vivo Anticancer Drug Screen. Data for tumor model B16 Melanoma (intraperitoneal) in B6D2F1 (BDF1) mice
Settings: T/C endpoint: median survival time, higher T/C = longer survival
In short: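 Transplantable tumor model; survival or tumor size measured; reported as T/C, treated over vehicle control.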

[1] = dose: 3.0 mg/kg/injection, schedule: Q01DX009 (ip), vehicle: saline

## COc1cccc2c1C(=O)c1c(O)c3c(c(O)c1C2=O)C[C@@](O)(C(=O)CO)C[C@@H]3OC1CC(N)C(O)C(C)O1 (stereo not given in full)
dose: 0.06 mg/kg/injection, schedule: Q01DX009 (ip), vehicle: saline, evaluated on day 5
  T/C: 135, 149, 180 % of control
dose: 0.06 mg/kg/injection, schedule: Q01DX009 (ip), vehicle: saline, evaluated on day 45
  T/C: 131 % of control
dose: 0.06 mg/kg/injection, schedule: Q01DX009 (ip), vehicle: saline, evaluated on day 90
  T/C: 149 and 180 % of control
dose: 0.13 mg/kg/injection, schedule: Q01DX001 (ip), vehicle: saline, evaluated on day 5
  T/C: 140 and 142 % of control
dose: 0.13 mg/kg/injection, schedule: Q01DX001 (ip), vehicle: saline, evaluated on day 45
  T/C: 141 % of control
dose: 0.13 mg/kg/injection, schedule: Q01DX001 (ip), vehicle: saline, evaluated on day 60
  T/C: 136 % of control
dose: 0.13 mg/kg/injection, schedule: Q01DX009 (ip), vehicle: saline, evaluated on day 5
  T/C: 166, 169, 207 % of control
dose: 0.13 mg/kg/injection, schedule: Q01DX009 (ip), vehicle: saline, evaluated on day 45
  T/C: 163 % of control
dose: 0.13 mg/kg/injection, schedule: Q01DX009 (ip), vehicle: saline, evaluated on day 60
  T/C: 157 % of control
dose: 0.13 mg/kg/injection, schedule: Q01DX009 (ip), vehicle: saline, evaluated on day 90
  T/C: 166 and 207 % of control
dose: 0.25 mg/kg/injection, schedule: Q01DX001 (ip), vehicle: saline, evaluated on day 5
  T/C: 144 and 154 % of control
dose: 0.25 mg/kg/injection, schedule: Q01DX001 (ip), vehicle: saline, evaluated on day 45
  T/C: 143 % of control
dose: 0.25 mg/kg/injection, schedule: Q01DX001 (ip), vehicle: saline, evaluated on day 60
  T/C: 153 % of control
dose: 0.25 mg/kg/injection, schedule: Q01DX009 (ip), vehicle: saline, evaluated on day 5
  T/C: 179, 184, 295 % of control
dose: 0.25 mg/kg/injection, schedule: Q01DX009 (ip), vehicle: saline, evaluated on day 45
  T/C: 175 % of control
dose: 0.25 mg/kg/injection, schedule: Q01DX009 (ip), vehicle: saline, evaluated on day 60
  T/C: 133, 138, 140, 152, 163, 186, 187, 189, 191 (2×), 193 (2×), 204, 211, 226 [9 of 10 alive], 236, 308 % of control
dose: 0.25 mg/kg/injection, schedule: Q01DX009 (ip), vehicle: saline, evaluated on day 90
  T/C: 184 and 295 % of control
dose: 0.25 mg/kg/injection, schedule: Q01DX009 (ip), vehicle: saline
  survivor count: 10 of 10
dose: 0.25 mg/kg/injection, schedule: Q03HX008 (ip), vehicle: saline
  T/C: 133 % of control
dose: 0.37 mg/kg/injection, schedule: Q01DX009 (ip), vehicle: saline
  T/C: 131 % of control
dose: 0.5 mg/kg/injection, schedule: Q01DX001 (ip), vehicle: saline, evaluated on day 5
  T/C: 160 and 203 % of control
dose: 0.5 mg/kg/injection, schedule: Q01DX001 (ip), vehicle: saline, evaluated on day 45
  T/C: 200 % of control
dose: 0.5 mg/kg/injection, schedule: Q01DX001 (ip), vehicle: saline, evaluated on day 60
  T/C: 160 % of control
dose: 0.5 mg/kg/injection, schedule: Q01DX009 (ip), vehicle: saline, evaluated on day 5
  T/C: 179 (2×) and 491 % of control
dose: 0.5 mg/kg/injection, schedule: Q01DX009 (ip), vehicle: saline, evaluated on day 45
  T/C: 175 % of control
dose: 0.5 mg/kg/injection, schedule: Q01DX009 (ip), vehicle: saline, evaluated on day 60
  T/C: 134, 156, 165, 181, 213, 216, 218, 220, 224, 225, 241 [8 of 10 alive], 262, 272, 283, 288, 299, 303, 310, 313, 321 % of control
dose: 0.5 mg/kg/injection, schedule: Q01DX009 (ip), vehicle: saline, evaluated on day 90
  T/C: 179 and 491 % of control
dose: 0.5 mg/kg/injection, schedule: Q01DX009 (ip), vehicle: saline
  survivor count: 10 of 10
dose: 0.5 mg/kg/injection, schedule: Q04DX003 (ip), vehicle: saline, evaluated on day 8
  T/C: 125 % of control
dose: 0.5 mg/kg/injection, schedule: Q04DX003 (ip), vehicle: saline, evaluated on day 60
  T/C: 111, 158, 176 % of control
dose: 0.75 mg/kg/injection, schedule: Q01DX001 (ip), vehicle: saline
  T/C: 127 % of control
dose: 0.75 mg/kg/injection, schedule: Q04DX003 (ip), vehicle: saline
  T/C: 145 % of control
dose: 1.0 mg/kg/injection, schedule: Q01DX001 (ip), vehicle: saline, evaluated on day 5
  T/C: 217 and 275 % of control
dose: 1.0 mg/kg/injection, schedule: Q01DX001 (ip), vehicle: saline, evaluated on day 45
  T/C: 219 % of control
dose: 1.0 mg/kg/injection, schedule: Q01DX001 (ip), vehicle: saline, evaluated on day 60
  T/C: 260 % of control
dose: 1.0 mg/kg/injection, schedule: Q01DX001 (ip), vehicle: water, evaluated on day 40
  T/C: 118 % of control
dose: 1.0 mg/kg/injection, schedule: Q01DX001 (ip), vehicle: water, evaluated on day 45
  T/C: 101 [9 of 10 alive], 112, 142 % of control [9 of 10 alive]
dose: 1.0 mg/kg/injection, schedule: Q01DX001 (ip), vehicle: water, evaluated on day 50
  T/C: 132 % of control
dose: 1.0 mg/kg/injection, schedule: Q01DX001 (ip), vehicle: water, evaluated on day 60
  T/C: 117, 132, 134, 138, 144, 148 (2×), 154 (2×), 161 (2×), 164, 170, 171, 173, 174, 175, 177, 178, 180 (2×), 182, 185, 188, 189, 190, 191, 192, 193, 196, 206, 207, 218, 225, 226, 236 % of control (2×)
dose: 1.0 mg/kg/injection, schedule: Q01DX009 (ip), vehicle: saline, evaluated on day 5
  T/C: 216, 434, 491 % of control
dose: 1.0 mg/kg/injection, schedule: Q01DX009 (ip), vehicle: saline, evaluated on day 45
  T/C: 219 % of control
dose: 1.0 mg/kg/injection, schedule: Q01DX009 (ip), vehicle: saline, evaluated on day 60
  T/C: 151, 167, 187, 190, 213 (2×), 215 [9 of 10 alive], 244, 250, 260, 262, 267, 283, 288, 298, 301, 303, 309, 313, 322, 376 % of control
dose: 1.0 mg/kg/injection, schedule: Q01DX009 (ip), vehicle: saline, evaluated on day 90
  T/C: 434 and 491 % of control
dose: 1.0 mg/kg/injection, schedule: Q04DX003 (ip), vehicle: saline, evaluated on day 8
  T/C: 130 % of control
dose: 1.0 mg/kg/injection, schedule: Q04DX003 (ip), vehicle: saline, evaluated on day 60
  T/C: 130 [9 of 10 alive], 144 [9 of 10 alive], 226, 240, 260 % of control
dose: 1.5 mg/kg/injection, schedule: Q01DX001 (ip), vehicle: water, evaluated on day 45
  T/C: 222 % of control
dose: 1.5 mg/kg/injection, schedule: Q01DX001 (ip), vehicle: water, evaluated on day 60
  T/C: 180, 190, 287 % of control [9 of 10 alive]
dose: 1.5 mg/kg/injection, schedule: Q03HX008 (ip), vehicle: saline
  survivor count: 10 of 10
dose: 1.73 mg/kg/injection, schedule: Q04DX003 (ip), vehicle: water, evaluated on day 60
  T/C: 146, 149, 209, 232 % of control
dose: 1.73 mg/kg/injection, schedule: Q04DX003 (ip), vehicle: water, evaluated on day 75
  T/C: 127 and 166 % of control
dose: 1.9 mg/kg/injection, schedule: Q01DX001 (ip), vehicle: water
  T/C: 125 % of control
dose: 2.0 mg/kg/injection, schedule: Q01DX001 (ip), vehicle: saline, evaluated on day 5
  T/C: 177 and 216 % of control
dose: 2.0 mg/kg/injection, schedule: Q01DX001 (ip), vehicle: saline, evaluated on day 45
  T/C: 219 % of control
dose: 2.0 mg/kg/injection, schedule: Q01DX001 (ip), vehicle: saline, evaluated on day 60
  T/C: 178 % of control
dose: 2.0 mg/kg/injection, schedule: Q01DX001 (ip), vehicle: water, evaluated on day 40
  T/C: 122 % of control
dose: 2.0 mg/kg/injection, schedule: Q01DX001 (ip), vehicle: water, evaluated on day 45
  T/C: 112, 122, 169 % of control
dose: 2.0 mg/kg/injection, schedule: Q01DX001 (ip), vehicle: water, evaluated on day 50
  T/C: 144 % of control
dose: 2.0 mg/kg/injection, schedule: Q01DX001 (ip), vehicle: water, evaluated on day 60
  T/C: 113, 153, 158, 170, 173, 175, 177, 179 (3×), 183, 185, 188, 192, 196 (2×), 197, 199, 205, 210, 213, 219 (2×), 222, 226, 232 (2×), 235, 251, 252, 255, 281, 284, 288, 289, 293, 300 % of control
dose: 2.0 mg/kg/injection, schedule: Q01DX009 (ip), vehicle: saline, evaluated on day 5
  T/C: 185, 217, 398 % of control
dose: 2.0 mg/kg/injection, schedule: Q01DX009 (ip), vehicle: saline, evaluated on day 45
  T/C: 219 % of control
dose: 2.0 mg/kg/injection, schedule: Q01DX009 (ip), vehicle: saline, evaluated on day 60
  T/C: 125 [9 of 10 alive], 164, 172 [9 of 10 alive], 173, 209, 212, 251, 252, 262, 282, 288, 298, 300, 303, 315 (2×), 321 % of control
dose: 2.0 mg/kg/injection, schedule: Q01DX009 (ip), vehicle: saline, evaluated on day 90
  T/C: 185 and 398 % of control
dose: 2.0 mg/kg/injection, schedule: Q01DX009 (ip), vehicle: saline
  survivor count: 10 of 10
dose: 2.0 mg/kg/injection, schedule: Q04DX003 (ip), vehicle: saline, evaluated on day 8
  T/C: 170 % of control
dose: 2.0 mg/kg/injection, schedule: Q04DX003 (ip), vehicle: saline, evaluated on day 60
  T/C: 180, 188, 210, 222, 272 % of control
dose: 2.88 mg/kg/injection, schedule: Q04DX003 (ip), vehicle: water, evaluated on day 60
  T/C: 151, 161, 245, 301 % of control
dose: 2.88 mg/kg/injection, schedule: Q04DX003 (ip), vehicle: water, evaluated on day 75
  T/C: 138 and 245 % of control
dose: 2.9 mg/kg/injection, schedule: Q01DX001 (ip), vehicle: saline
  T/C: 129 % of control (2×)
dose: 3.0 mg/kg/injection, schedule: Q01DX001 (ip), vehicle: water, evaluated on day 45
  T/C: 234 % of control
dose: 3.0 mg/kg/injection, schedule: Q01DX001 (ip), vehicle: water, evaluated on day 60
  T/C: 180, 269, 287 % of control
[1]
  T/C: 131 % of control
  survivor count: 10 of 10
dose: 3.0 mg/kg/injection, schedule: Q03HX008 (ip), vehicle: saline
  survivor count: 8 of 10 and 10 of 10
dose: 3.6 mg/kg/injection, schedule: Q01DX001 (ip), vehicle: water, evaluated on day 60
  T/C: 124 and 227 % of control
dose: 3.6 mg/kg/injection, schedule: Q01DX001 (ip), vehicle: water, evaluated on day 65
  T/C: 129 and 176 % of control
dose: 3.6 mg/kg/injection, schedule: Q01DX001 (ip), vehicle: water, evaluated on day 75
  T/C: 117 and 241 % of control
dose: 3.8 mg/kg/injection, schedule: Q01DX001 (ip), vehicle: water
  T/C: 142 % of control [9 of 10 alive]
dose: 4.0 mg/kg/injection, schedule: Q01DX001 (ip), vehicle: saline, evaluated on day 1
  T/C: 220 % of control
dose: 4.0 mg/kg/injection, schedule: Q01DX001 (ip), vehicle: saline, evaluated on day 5
  T/C: 271 % of control
dose: 4.0 mg/kg/injection, schedule: Q01DX001 (ip), vehicle: saline, evaluated on day 6
  T/C: 220 % of control
